PubChem BioAssay
The shares of active, inactive and inconclusive entries below differ from those in the screen. For some of these results: A potency beside an inconclusive call is a rough fit, not a confirmed value. Active and inactive are the calls of the source. Unless noted, cut-off not given; nearly all actives show AC50 up to about 26 µM.

By UniProt entry, the sequences of proteins in these tests, tags left out.
UniProt P08183, whole entry, looked up: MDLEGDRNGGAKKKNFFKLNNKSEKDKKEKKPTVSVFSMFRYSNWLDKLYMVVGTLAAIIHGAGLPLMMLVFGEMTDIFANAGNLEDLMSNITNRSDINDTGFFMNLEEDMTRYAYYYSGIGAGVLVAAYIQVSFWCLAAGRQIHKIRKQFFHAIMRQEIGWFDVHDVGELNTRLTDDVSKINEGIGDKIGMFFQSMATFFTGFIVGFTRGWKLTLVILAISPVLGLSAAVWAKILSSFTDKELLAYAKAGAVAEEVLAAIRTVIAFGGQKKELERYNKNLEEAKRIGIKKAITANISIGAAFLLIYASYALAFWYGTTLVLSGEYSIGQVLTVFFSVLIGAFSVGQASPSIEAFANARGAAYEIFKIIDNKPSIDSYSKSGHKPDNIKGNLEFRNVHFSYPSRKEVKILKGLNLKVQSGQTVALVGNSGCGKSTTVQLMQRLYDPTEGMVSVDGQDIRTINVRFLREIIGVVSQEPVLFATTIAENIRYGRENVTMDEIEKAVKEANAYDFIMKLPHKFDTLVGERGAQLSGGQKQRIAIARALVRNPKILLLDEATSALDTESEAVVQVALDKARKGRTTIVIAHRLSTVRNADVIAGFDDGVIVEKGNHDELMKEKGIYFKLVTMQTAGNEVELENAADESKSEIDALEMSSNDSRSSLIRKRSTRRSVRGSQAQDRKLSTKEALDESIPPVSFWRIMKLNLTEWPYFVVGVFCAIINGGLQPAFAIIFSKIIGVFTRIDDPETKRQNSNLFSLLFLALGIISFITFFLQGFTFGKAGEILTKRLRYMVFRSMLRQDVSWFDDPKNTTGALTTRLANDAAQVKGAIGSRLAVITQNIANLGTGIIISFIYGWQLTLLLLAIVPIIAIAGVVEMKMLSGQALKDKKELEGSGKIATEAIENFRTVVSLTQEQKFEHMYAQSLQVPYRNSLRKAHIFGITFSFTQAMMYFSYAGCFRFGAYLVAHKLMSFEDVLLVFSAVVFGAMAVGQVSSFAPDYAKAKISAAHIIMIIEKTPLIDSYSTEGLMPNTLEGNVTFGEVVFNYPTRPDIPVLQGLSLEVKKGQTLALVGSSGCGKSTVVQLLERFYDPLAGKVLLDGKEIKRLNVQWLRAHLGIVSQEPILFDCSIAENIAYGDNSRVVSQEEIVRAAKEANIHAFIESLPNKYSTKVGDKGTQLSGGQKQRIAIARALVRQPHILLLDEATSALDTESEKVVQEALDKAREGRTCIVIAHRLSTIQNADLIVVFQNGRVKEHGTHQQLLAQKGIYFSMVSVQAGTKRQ

Experiments:
[1] = growth inhibition of DIPG glioma cells, dose response, cell-based, SU-DIPG-XVII, MIPE5.0, CellTiter-Glo, qHTS (AID 1347060); settings: SU-DIPG-XVII viability, CellTiter-Glo ATP luminescence;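 on AC50: cells exposed to compound for 48 hours before viability readout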
[2] = growth inhibition of DIPG glioma cells, dose response, cell-based, SU-DIPG-XIII, MIPE4.0, CellTiter-Glo, qHTS (AID 1347061; cut-off not given, nearly all actives have AC50 up to about 37 µM;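 further: cells exposed to compound for 48 hours before readout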); settings: SU-DIPG-XIII viability, CellTiter-Glo ATP luminescence
[3] = growth inhibition of DIPG glioma cells, dose response, cell-based, JHH-DIPG-1, MIPE4.0, CellTiter-Glo, qHTS (AID 1347062; cut-off not given, nearly all actives have AC50 up to about 27 µM;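 on AC50: cells exposed to compound for two days before readout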); settings: JHH-DIPG-1 viability, CellTiter-Glo ATP luminescence
[4] = growth inhibition of DIPG glioma cells, dose response, cell-based, SU-DIPG-IV, MIPE4.0, CellTiter-Glo, qHTS (AID 1347063; cut-off not given, nearly all actives have AC50 up to about 30 µM;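 further: compound exposure lasted 48 hours before the viability readout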); settings: SU-DIPG-IV viability, CellTiter-Glo ATP luminescence
[5] = growth inhibition of DIPG glioma cells, dose response, cell-based, SU-DIPG-XIII, MIPE5.0, CellTiter-Glo, qHTS (AID 1347064; cut-off not given, nearly all actives have AC50 up to about 23 µM;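 on AC50: cells exposed to compound for 48 hours before the viability read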); settings: SU-DIPG-XIII viability, CellTiter-Glo ATP luminescence
[6] = viability loss in pontine glioma line – cell-based, SU-DIPG-XXV, MIPE5.0, CellTiter-Glo, qHTS, dose response (AID 1347065); settings: CellTiter-Glo ATP luminescence;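 further: cells exposed to compound for 48 hours before ATP readout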
[7] = SU-DIPG-VI glioma cell viability, MIPE4.0 library, CellTiter-Glo luminescence, qHTS (AID 1347066; cut-off not given, nearly all actives have AC50 up to about 30 µM;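 further: cells exposed to compound for 48 hours before readout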); settings: CellTiter-Glo ATP luminescence
[8] = SU-DIPG-XXV glioma cell viability, MIPE5.0 library, qHTS (AID 1347068; cut-off not given, nearly all actives have IC50 up to about 30 µM;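 on IC50: cells exposed to compound for 48 hours before viability readout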)
[9] = target: ATP-dependent translocase ABCB1 (Homo sapiens) (UniProt P08183); assay: MDR1 (ABCB1) efflux transporter inhibition, cell-based (AID 377; in the data active means fluorescence slope change above about 50%; inconclusive means mostly about 31% to 49%); settings: MDR1-expressing cells, fluorescent substrate accumulation slope; hits give high values; concentration not given here
[10] = JHH-DIPG-1 glioma cell viability, MIPE5.0 library, CellTiter-Glo luminescence, qHTS (AID 1347067); settings: JHH-DIPG-1 glioma viability, CellTiter-Glo ATP luminescence;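 further: cells exposed to compound for 48 hours before readout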
[11] = inhibitors of polyQ aggregate elongation, biochemical, solid-phase synthetic aggregates, QA3 (AID 1585; call rule not given here); settings: biotin-polyQ incorporation, at 100 µM, hits give high values
[12] = polyglutamine aggregation reduction, turbidity readout, qthio, single concentration 25 µM screen (AID 1588; call rule not given here); settings: at 25 µM, hits give low values
[13] = protection of motor neurons from glutamate death, cell-based, TUNEL DNA degradation staining, MNGlu (AID 1594; call rule not given here); settings: glutamate-induced death, at 1 µM, hits give high values
[14] = enhancers of SMN2 over SMN1 splicing, cell-based, SMN2/SMN1 luciferase reporters (AID 1598; call rule not given here); settings: SMN2 vs SMN1 luciferase splicing reporter cells; at 10 µM; hits give high values

CC(C)C[C@@H](C(=O)N[C@H](C(=O)OC1CCCC1)c1ccccc1)[C@H](O)C(=O)NO
active: AC50 [4] 16.6 µM | AC50 [7] 23.5 µM
inconclusive: AC50 [1] 13.2 µM [cytotoxic] | AC50 [2] 20.9 µM [cytotoxic] | AC50 [3] 4.69 µM [cytotoxic] | AC50 [5] 1.48 µM [cytotoxic] | AC50 [6] 18.6 µM [cytotoxic] | IC50 [8] 0.332 µM [cytotoxic]

Oc1ccc(/C=C/c2cc(O)cc(O)c2)cc1
inactive: fluorescence slope change [9] 28.4% | outcome [3] | outcome [5] | outcome [7] | outcome [10]
inconclusive: AC50 [1] 23.5 µM [cytotoxic] | AC50 [2] 16.6 µM [cytotoxic] | AC50 [4] 18.7 µM [cytotoxic] | AC50 [6] 13.2 µM [cytotoxic] | IC50 [8] 18.6 µM [cytotoxic]

Cc1cc(C(C)(C)C)cc(C)c1CC1=NCCN1
inactive: fluorescence slope change [9] 26.6% | outcome [5] | outcome [6] | outcome [7]
inconclusive: inhibition [11] 29.7% | aggregation (% of control) [12] 105% | protection [13] 1% | SMN2/SMN1 luciferase ratio [14] 1.03 | AC50 [1] 26.3 µM [cytotoxic] | AC50 [2] 13.2 µM [cytotoxic] | AC50 [3] 18.7 µM [cytotoxic] | AC50 [4] 1.48 µM [cytotoxic]

O=C(Nc1ccc(F)c(C(F)(F)F)c1)Nc1nnc(-c2ccncc2)s1
inactive: outcome [5] | outcome [7] | outcome [8]
inconclusive: AC50 [1] 0.934 µM [cytotoxic] | AC50 [2] 20.9 µM [cytotoxic] | AC50 [3] 2.35 µM [cytotoxic] | AC50 [4] 1.87 µM [cytotoxic] | AC50 [6] 0.00662 µM [cytotoxic]

O=C1CSC(=O)N1C(CCc1ccncc1)COc1ccc(-c2cccc([N+](=O)[O-])c2)cc1 (centres undefined)
inconclusive: AC50 [1] 14.8 µM [cytotoxic] | AC50 [2] 18.7 µM [cytotoxic] | AC50 [3] 20.9 µM [cytotoxic] | AC50 [4] 16.6 µM [cytotoxic] | AC50 [5] 13.2 µM [cytotoxic] | AC50 [7] 16.6 µM [cytotoxic] | IC50 [8] 2.63 µM [cytotoxic]
active: AC50 [6] 18.6 µM

Cc1ccc(S(=O)(=O)OCC(=O)Nc2ccc(C(=O)O)c(O)c2)cc1
inactive: outcome [1] | outcome [3] | outcome [4] | outcome [6] | outcome [10] | outcome [8]
inconclusive: AC50 [2] 23.5 µM [cytotoxic] | AC50 [5] 20.9 µM [cytotoxic]

O=S(=O)(O)CCSSCCS(=O)(=O)O
inconclusive: AC50 [3] 37.2 µM [cytotoxic] | AC50 [4] 37.2 µM [cytotoxic]
inactive: outcome [1] | outcome [2] | outcome [5] | outcome [6] | outcome [10]

CN(C)c1ccc(O)c2c1C[C@H]1C[C@H]3[C@H](N(C)C)C(=O)C(C(N)=O)=C(O)[C@@]3(O)C(=O)C1=C2O
inconclusive: inhibition [11] -31.9% | aggregation (% of control) [12] 120% | SMN2/SMN1 luciferase ratio [14] 0.89 | AC50 [1] 13.2 µM [cytotoxic] | AC50 [2] 8.33 µM [cytotoxic] | AC50 [4] 20.9 µM [cytotoxic] | AC50 [5] 33.2 µM [cytotoxic] | AC50 [6] 0.0661 µM [cytotoxic]
active: fluorescence slope change [9] 103%
inactive: outcome [3] | outcome [7]

O=C(O)C(O)Cc1ccc(O)c(O)c1 (centres undefined)
inactive: outcome [2] | outcome [3] | outcome [4]
inconclusive: AC50 [1] 0.00241 µM | AC50 [5] 38.2 µM [cytotoxic] | AC50 [6] 3.03 µM [cytotoxic] | AC50 [10] 4.81 µM

CN[C@@H]1CN(c2ccc3c(=O)c(C(=O)O)cn(-c4nccs4)c3n2)C[C@H]1OC
inconclusive: AC50 [2] 18.2 µM [cytotoxic] | AC50 [3] 3.63 µM [cytotoxic] | AC50 [4] 10.2 µM [cytotoxic] | AC50 [5] 7.23 µM [cytotoxic] | AC50 [7] 16.2 µM [cytotoxic] | IC50 [8] 11.5 µM [cytotoxic]
active: AC50 [1] 0.91 µM | AC50 [6] 5.74 µM

CCOC(=O)c1ccc(C#Cc2ccc3c(c2)C(C)(C)CCS3)nc1
active: AC50 [1] 26.3 µM
inconclusive: AC50 [2] 26.4 µM [cytotoxic] | AC50 [4] 37.2 µM [cytotoxic] | AC50 [5] 13.2 µM [cytotoxic] | AC50 [6] 0.0295 µM [cytotoxic] | AC50 [10] 37.2 µM [cytotoxic]
inactive: outcome [3]
